No constants are given. Whether binding was seen depends on the method and setting. Binding seen in cells or lysates may run through a third protein. Some entries that bind do so weakly or less than the wild type. Tags and fused reporters may be left off the sequences shown.
What was measured:
Assay in all cases: co-IP; SPRED1/Spred1 constructs co-expressed with HA-zDHHC24 in cells (HEK293T); lysates precipitated with anti-FLAG antibody and TrueBlot anti-mouse Ig beads, anti-GFP-agarose or anti-Myc-agarose for 2 h at 4 °C; washed with 50 mM Tris-HCl pH 8.0, 150 mM NaCl, 1% Nonidet P-40; Western blot
[1] = target: T1, murine Spred1 S388* (C-terminal 56 amino acid deletion), Myc-tagged (murine) (UniProt Q924S8)
T1 sequence: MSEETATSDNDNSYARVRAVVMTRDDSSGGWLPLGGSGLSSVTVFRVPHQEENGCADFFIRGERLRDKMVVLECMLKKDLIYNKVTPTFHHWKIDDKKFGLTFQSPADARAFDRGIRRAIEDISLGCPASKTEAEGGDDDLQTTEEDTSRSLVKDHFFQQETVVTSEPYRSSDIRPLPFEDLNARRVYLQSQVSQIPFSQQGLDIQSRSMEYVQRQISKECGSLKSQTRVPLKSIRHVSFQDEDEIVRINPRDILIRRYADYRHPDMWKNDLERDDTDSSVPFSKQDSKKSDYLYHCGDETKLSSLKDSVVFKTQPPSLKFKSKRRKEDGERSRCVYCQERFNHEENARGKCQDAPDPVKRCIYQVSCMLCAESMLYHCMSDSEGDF

[2] = target: T2, murine Spred1 C419* (C-terminal 26 amino acid deletion), Myc-tagged (murine) (UniProt Q924S8)
T2 sequence: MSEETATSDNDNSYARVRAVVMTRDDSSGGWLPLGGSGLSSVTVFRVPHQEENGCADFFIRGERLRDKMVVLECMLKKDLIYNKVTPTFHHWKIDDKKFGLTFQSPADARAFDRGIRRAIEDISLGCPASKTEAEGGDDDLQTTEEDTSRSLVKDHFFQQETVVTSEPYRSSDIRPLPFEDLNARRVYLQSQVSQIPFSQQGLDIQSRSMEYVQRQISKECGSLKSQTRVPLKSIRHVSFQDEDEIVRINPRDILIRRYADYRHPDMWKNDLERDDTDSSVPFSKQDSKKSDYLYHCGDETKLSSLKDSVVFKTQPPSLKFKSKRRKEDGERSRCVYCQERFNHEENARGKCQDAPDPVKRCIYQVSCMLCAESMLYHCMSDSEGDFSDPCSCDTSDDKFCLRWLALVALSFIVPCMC

[3] = target: T3, murine Spred1, Myc-tagged, wild type (murine) (UniProt Q924S8)
T3 sequence: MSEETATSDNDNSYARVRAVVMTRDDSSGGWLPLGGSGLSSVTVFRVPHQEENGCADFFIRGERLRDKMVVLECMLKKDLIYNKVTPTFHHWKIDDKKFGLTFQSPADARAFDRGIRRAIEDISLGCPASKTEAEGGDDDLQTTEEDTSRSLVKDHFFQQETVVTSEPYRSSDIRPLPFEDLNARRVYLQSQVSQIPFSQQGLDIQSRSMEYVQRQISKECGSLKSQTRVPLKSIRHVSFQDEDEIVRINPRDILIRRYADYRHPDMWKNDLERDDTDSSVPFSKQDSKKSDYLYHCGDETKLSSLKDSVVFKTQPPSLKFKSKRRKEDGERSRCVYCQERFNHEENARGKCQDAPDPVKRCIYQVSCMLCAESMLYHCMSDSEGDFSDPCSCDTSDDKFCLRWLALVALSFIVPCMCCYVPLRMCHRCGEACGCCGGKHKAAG

[4] = target: T4, human SPRED1 (Sprouty-related protein with an EVH1 domain-1), wild type (human) (UniProt Q7Z699)
T4 sequence: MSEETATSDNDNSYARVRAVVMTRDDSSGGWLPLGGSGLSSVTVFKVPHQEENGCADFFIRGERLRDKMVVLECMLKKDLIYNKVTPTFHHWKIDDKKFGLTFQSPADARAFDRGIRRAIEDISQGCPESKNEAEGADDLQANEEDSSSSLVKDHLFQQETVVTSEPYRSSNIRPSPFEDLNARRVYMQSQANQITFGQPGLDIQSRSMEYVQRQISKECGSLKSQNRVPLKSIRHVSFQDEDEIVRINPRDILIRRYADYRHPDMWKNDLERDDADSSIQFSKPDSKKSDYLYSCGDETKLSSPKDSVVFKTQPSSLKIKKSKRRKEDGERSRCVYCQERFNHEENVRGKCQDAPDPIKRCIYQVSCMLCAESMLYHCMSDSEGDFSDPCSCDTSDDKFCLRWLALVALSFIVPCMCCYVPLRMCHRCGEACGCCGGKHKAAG

B1: murine zDHHC24, HA-tagged (enzyme, UniProt Q6IR37 1-284)
chain: MGESWAARGAEGAPARMPLVLTALWAAVVVLELAYVMVLGPGPPPLGPLARALQLALAAYQLLNLLGNVVLFLRSDPSIRGVMLAGRGLGQGWAYCYQCQSQVPPRSGHCSACRVCILRRDHHCRLLGCCVGFHNYRPFLCLLLHSAGVLLHISVLLGPALSALLQAHSALYTVALLLLPWLMLLTGKVSLAQFALAFVVDTCVAGALLCGAGLLFHGMLLLRGQTTWEWARGHHCYDLGTCHNLQAALGPRWALVWFWPFLASPLPGDGISFQTPGDVGLVTS
For B1, the binding [1] was “no binding”, the binding [2] was “binds” and the binding [3] was “binds”. For the same binder, the binding [4] was “binds”.
